In the supplement of paper PMC11098740:
± gives the standard deviation of the averaged measurements. The list shows a part of the results. Single values are uncertain, as repeats are few or missing.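 The assay uses a mixed pool of 41 HAP1 clones in which 61 cancer-associated proteins bear intron-inserted fluorescent tags, and clones are distinguished by image pattern. Results are compared against DMSO-treated control wells, and the BRD4 degrader dBET6 is the positive control.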

Sequences of proteins named here, by UniProt entry; tags and fusion partners are left off.
UniProt O14980, whole entry: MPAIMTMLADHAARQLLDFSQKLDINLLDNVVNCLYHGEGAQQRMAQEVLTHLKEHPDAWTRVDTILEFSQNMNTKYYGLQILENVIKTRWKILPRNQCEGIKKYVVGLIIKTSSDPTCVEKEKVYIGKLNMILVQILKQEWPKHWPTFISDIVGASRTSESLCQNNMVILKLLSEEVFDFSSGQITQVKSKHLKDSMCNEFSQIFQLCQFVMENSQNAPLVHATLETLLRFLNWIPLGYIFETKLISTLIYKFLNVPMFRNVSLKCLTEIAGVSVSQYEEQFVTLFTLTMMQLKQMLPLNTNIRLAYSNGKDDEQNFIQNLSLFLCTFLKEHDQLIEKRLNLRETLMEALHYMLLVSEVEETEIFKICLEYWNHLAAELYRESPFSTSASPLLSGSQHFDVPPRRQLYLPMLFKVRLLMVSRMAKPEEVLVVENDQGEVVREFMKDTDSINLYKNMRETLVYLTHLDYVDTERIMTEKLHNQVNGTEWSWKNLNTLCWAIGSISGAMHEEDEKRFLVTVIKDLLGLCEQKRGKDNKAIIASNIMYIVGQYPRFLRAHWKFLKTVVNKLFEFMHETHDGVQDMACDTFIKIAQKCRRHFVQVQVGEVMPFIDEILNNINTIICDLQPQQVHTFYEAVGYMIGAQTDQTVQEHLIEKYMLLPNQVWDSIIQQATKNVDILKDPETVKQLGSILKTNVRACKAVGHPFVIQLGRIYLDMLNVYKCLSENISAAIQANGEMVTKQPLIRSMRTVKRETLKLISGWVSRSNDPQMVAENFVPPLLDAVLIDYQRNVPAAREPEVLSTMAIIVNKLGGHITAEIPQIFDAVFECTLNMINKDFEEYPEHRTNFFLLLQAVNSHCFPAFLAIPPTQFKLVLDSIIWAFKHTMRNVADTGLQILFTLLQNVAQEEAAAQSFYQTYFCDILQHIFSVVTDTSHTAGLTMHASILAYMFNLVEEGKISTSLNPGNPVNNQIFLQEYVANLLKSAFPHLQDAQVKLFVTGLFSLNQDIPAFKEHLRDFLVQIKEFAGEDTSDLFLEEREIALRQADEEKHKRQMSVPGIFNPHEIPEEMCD

The compounds below were run against XPO1 (intron 15 mScarlet tag, HAP1) (UniProt O14980) (assay: XPO1 fluorescence intensity change vs DMSO (log2 fold change); higher = more XPO1 protein). Details: 6 h.
`NNC(=O)c1ccncc1` [Isoniazid] (10 µM) was tested, and the “XPO1 fluorescence intensity change (log2)” value was 0.145.
With `CC(=O)NO` [Acetohydroxamic Acid] (10 µM) the “XPO1 fluorescence intensity change (log2)” value was -0.0404.
For `CC(=O)O[C@H]1CC[C@@]2(C)C(=CC[C@@H]3[C@@H]2CC[C@]2(C)C(c4cccnc4)=CC[C@@H]32)C1` [Abiraterone Acetate] (20 µM), the “XPO1 fluorescence intensity change (log2)” value was 0.0304.
For `O=C(O)C(=O)O.[NH-][C@@H]1CCCC[C@H]1[NH-].[Pt+2]` [Oxaliplatin] (20 µM), the “XPO1 fluorescence intensity change (log2)” value was 0.205.
With `CCCCNc1cc(C(=O)O)cc(S(N)(=O)=O)c1Oc1ccccc1` [Bumetanide] (10.00031521 µM) the “XPO1 fluorescence intensity change (log2)” value was 0.0411.
With `Nc1nc(NC2CC2)c2ncn([C@H]3C=C[C@@H](CO)C3)c2n1` [Abacavir] (10 µM) the “XPO1 fluorescence intensity change (log2)” value was -0.135.
With `CCCc1cc(=O)[nH]c(=S)[nH]1` [Propylthiouracil] (10 µM) the “XPO1 fluorescence intensity change (log2)” value was -0.107.
For `Cc1nc2n(c(=O)c1CCN1CCC(c3noc4cc(F)ccc34)CC1)CCCC2` [Risperidone] (10.00083684 µM), the “XPO1 fluorescence intensity change (log2)” value was 0.167.
For `CCN(CC)Cc1cc(Nc2ccnc3cc(Cl)ccc23)ccc1O` [Amodiaquine] (10.0001 µM), the “XPO1 fluorescence intensity change (log2)” value was -0.194.
In the case of `C[C@](N)(Cc1ccc(O)c(O)c1)C(=O)O` [Methyldopa] (10 µM), the “XPO1 fluorescence intensity change (log2)” value is reported as 0.0557.
In the case of `NS(=O)(=O)c1cc(Cl)c(Cl)c(S(N)(=O)=O)c1` [Dichlorphenamide] (10 µM), the “XPO1 fluorescence intensity change (log2)” value is reported as 0.00444.
For `CC1=Nc2ccc(Cl)cc2S(=O)(=O)N1` [Diazoxide] (10 µM), the “XPO1 fluorescence intensity change (log2)” value was -0.0342.
In the case of `C[C@]12C=CC(=O)C=C1CC[C@@H]1[C@@H]2[C@@H](O)C[C@@]2(C)[C@H]1CC[C@]2(O)C(=O)CO` [Prednisolone] (10 µM), the “XPO1 fluorescence intensity change (log2)” value is reported as -0.0599.
With `Cc1nnc(C(=O)NC(C)(C)c2nc(C(=O)NCc3ccc(F)cc3)c(O)c(=O)n2C)o1` [Raltegravir] (10 µM) the “XPO1 fluorescence intensity change (log2)” value was 0.0579.
For `CC(C(=O)O)c1cccc(Oc2ccccc2)c1` (centres undefined) [Fenoprofen] (10 µM), the “XPO1 fluorescence intensity change (log2)” value was 0.0333.
In the case of `Cc1ccc(NC(=O)NCc2ccc3c(c2)CN(C2CCC(=O)NC2=O)C3=O)cc1Cl` (centres undefined) (1 µM), the “XPO1 fluorescence intensity change (log2)” value is reported as -0.108.
With `Nc1nc(Cl)nc2c1ncn2[C@@H]1O[C@H](CO)[C@@H](O)[C@@H]1F` [Clofarabine] (0.1 µM) the “XPO1 fluorescence intensity change (log2)” value was -0.0733 ± 0.076.
In the case of `CCCc1nc(C(C)(C)O)c(C(=O)OCc2oc(=O)oc2C)n1Cc1ccc(-c2ccccc2-c2nnn[nH]2)cc1` [Olmesartan Medoxomil] (10.00003285 µM), the “XPO1 fluorescence intensity change (log2)” value is reported as 0.0346.
In the case of `CO[C@H]1O[C@@H]2O[C@@]3(C)CC[C@H]4[C@H](C)CC[C@@H]([C@H]1C)[C@@]24OO3` [Artemether] (10 µM), the “XPO1 fluorescence intensity change (log2)” value is reported as -0.0933.
`Cc1[nH]c(=O)c(C#N)cc1-c1ccncc1` [Milrinone] (10.0021 µM) was tested, and the “XPO1 fluorescence intensity change (log2)” value was -0.154.
In the case of `C[C@]12CC[C@@H]3c4ccc(O)cc4C[C@@H](CCCCCCCCC[S+]([O-])CCCC(F)(F)C(F)(F)F)[C@H]3[C@@H]1CC[C@@H]2O` (some centres undefined) [Fulvestrant] (20 µM), the “XPO1 fluorescence intensity change (log2)” value is reported as 0.235.
In the case of `N[C@@H]1CONC1=O` [D-Cycloserine] (10 µM), the “XPO1 fluorescence intensity change (log2)” value is reported as 0.0166.
With `Cc1sc2c(c1C)C(c1ccc(Cl)cc1)=N[C@@H](CC(=O)NCCCCCCCCNC(=O)COc1cccc3c1C(=O)N(C1CCC(=O)NC1=O)C3=O)c1nnc(C)n1-2` (some centres undefined) (0.1 µM) the “XPO1 fluorescence intensity change (log2)” value was 0.154.
For `COc1cc2nccc(Oc3ccc(NC(=O)C4(C(=O)Nc5ccc(F)cc5)CC4)cc3)c2cc1OC` [Cabozantinib] (20 µM), the “XPO1 fluorescence intensity change (log2)” value was 0.0849.
In the case of `CO[C@H]1C[C@@H]2CC[C@@H](C)[C@@](O)(O2)C(=O)C(=O)N2CCCC[C@H]2C(=O)O[C@H]([C@H](C)C[C@@H]2CC[C@@H](O)[C@H](OC)C2)CC(=O)[C@H](C)/C=C(\C)[C@@H](O)[C@@H](OC)C(=O)[C@H](C)C[C@H](C)/C=C/C=C/C=C/1C` [Rapamycin] (10 µM), the “XPO1 fluorescence intensity change (log2)” value is reported as -0.0693.
With `Cc1cn[nH]c1` [Fomepizole] (10 µM) the “XPO1 fluorescence intensity change (log2)” value was -0.0585.
In the case of `COc1ccc(C[C@@H]2c3cc(OC)c(OC)cc3CC[N@+]2(C)CCC(=O)OCCCCCOC(=O)CC[N@@+]2(C)CCc3cc(OC)c(OC)cc3[C@H]2Cc2ccc(OC)c(OC)c2)cc1OC` [Cisatracurium Besylate] (10 µM), the “XPO1 fluorescence intensity change (log2)” value is reported as -0.0179.
`C1=N/C2=N/c3ccc(OCCN4CCCC4)c(c3)COC/C=C/COCc3cccc(c3)C(=C1)N2` [Pacritinib] (10 µM) was tested, and the “XPO1 fluorescence intensity change (log2)” value was -0.234.
`CCCSc1ccc2[nH]c(NC(=O)OC)nc2c1` [Albendazole] (10 µM) was tested, and the “XPO1 fluorescence intensity change (log2)” value was 0.21.
In the case of `Cc1ccc(NC(=O)c2ccc(CN3CC[C@H](N(C)C)C3)c(C(F)(F)F)c2)cc1Nc1nccc(-c2cncnc2)n1` [Bafetinib] (10 µM), the “XPO1 fluorescence intensity change (log2)” value is reported as 0.0697.
With `Cc1nc(=O)c2cc(CN(C)c3ccc(C(=O)N[C@@H](CCC(=O)O)C(=O)O)s3)ccc2[nH]1` [Raltitrexed] (20 µM) the “XPO1 fluorescence intensity change (log2)” value was -0.0568.
For `NN1CCOC1=O` [3-Amino-2-Oxazolidinone] (5.429755364 µM), the “XPO1 fluorescence intensity change (log2)” value was 0.191.
In the case of `CCC(c1ccccc1)c1c(O)c2ccccc2oc1=O` (centres undefined) [Phenprocoumon] (10 µM), the “XPO1 fluorescence intensity change (log2)” value is reported as 0.0717.
In the case of `Nc1ccn([C@H]2CC[C@@H](CO)O2)c(=O)n1` [Zalcitabine] (9.9996931 µM), the “XPO1 fluorescence intensity change (log2)” value is reported as 0.116.
For `O=C(O)[C@H]1O[C@@H](Oc2ccc([C@@H]3[C@@H](CC[C@H](O)c4ccc(F)cc4)C(=O)N3c3ccc(F)cc3)cc2)[C@H](O)[C@@H](O)[C@@H]1O` [Ezetimibe Glucuronide] (10 µM), the “XPO1 fluorescence intensity change (log2)” value was -0.0564.
For `OC[C@H]1O[C@@H](n2cnc3c2N=CNC[C@H]3O)C[C@@H]1O` [Pentostatin] (14.69 µM), the “XPO1 fluorescence intensity change (log2)” value was 0.0903.
With `CN(C)[C@@H]1C(O)=C(C(N)=O)C(=O)[C@@]2(O)C(O)=C3C(=O)c4c(O)cccc4[C@@](C)(O)[C@H]3C[C@@H]12` [Tetracycline] (10 µM) the “XPO1 fluorescence intensity change (log2)” value was 0.13.
`CCN(CC)C(=O)/C(C#N)=C/c1cc(O)c(O)c([N+](=O)[O-])c1` [Entacapone] (10 µM) was tested, and the “XPO1 fluorescence intensity change (log2)” value was -0.00924.
For `Cc1ccsc1C(=CCCN1CCC[C@@H](C(=O)O)C1)c1sccc1C` [Tiagabine] (11 µM), the “XPO1 fluorescence intensity change (log2)” value was 0.16.
